Results are given in words; binding and its absence hold for the method and conditions named. In cells and extracts the contact can be indirect. Some entries that bind do so weakly or less than the wild type.
Target: endogenous Prox1 in HepG2 (human (endogenous in HepG2)) (UniProt Q92786)
Assay: co-IP; HepG2 lysate in RIPA buffer; endogenous Prox1 precipitated with anti-Prox1 antibody (Upstate) on protein A/G agarose beads; partners detected by Western blot; also with DNaseI (0.1 µg/µl) and RNaseA (0.2 µg/µl)

By UniProt entry, the sequences of proteins in these tests, tags left out.
UniProt Q92786: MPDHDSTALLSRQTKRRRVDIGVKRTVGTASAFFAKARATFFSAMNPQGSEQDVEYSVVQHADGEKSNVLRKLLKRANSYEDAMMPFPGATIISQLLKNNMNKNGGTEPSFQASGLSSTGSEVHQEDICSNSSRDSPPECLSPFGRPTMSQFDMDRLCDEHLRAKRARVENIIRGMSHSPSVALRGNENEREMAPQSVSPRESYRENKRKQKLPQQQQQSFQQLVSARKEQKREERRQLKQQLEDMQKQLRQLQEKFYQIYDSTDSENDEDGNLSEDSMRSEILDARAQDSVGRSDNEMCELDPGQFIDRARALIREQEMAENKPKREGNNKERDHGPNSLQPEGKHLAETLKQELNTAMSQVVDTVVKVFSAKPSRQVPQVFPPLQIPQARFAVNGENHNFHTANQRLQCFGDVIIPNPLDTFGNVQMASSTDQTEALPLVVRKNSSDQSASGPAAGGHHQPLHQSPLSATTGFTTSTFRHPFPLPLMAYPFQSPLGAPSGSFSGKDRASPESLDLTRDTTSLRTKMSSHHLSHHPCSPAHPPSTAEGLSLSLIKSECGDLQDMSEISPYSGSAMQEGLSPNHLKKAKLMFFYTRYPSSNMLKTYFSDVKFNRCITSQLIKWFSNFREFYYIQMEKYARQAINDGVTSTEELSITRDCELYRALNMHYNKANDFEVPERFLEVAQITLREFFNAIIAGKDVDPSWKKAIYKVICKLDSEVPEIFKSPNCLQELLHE

binding: binds
B1: hepatocyte nuclear factor 4α (HNF4α), endogenous (protein, UniProt P41235 1-474)
chain: MRLSKTLVDMDMADYSAALDPAYTTLEFENVQVLTMGNDTSPSEGTNLNAPNSLGVSALCAICGDRATGKHYGASSCDGCKGFFRRSVRKNHMYSCRFSRQCVVDKDKRNQCRYCRLKKCFRAGMKKEAVQNERDRISTRRSSYEDSSLPSINALLQAEVLSRQITSPVSGINGDIRAKKIASIADVCESMKEQLLVLVEWAKYIPAFCELPLDDQVALLRAHAGEHLLLGATKRSMVFKDVLLLGNDYIVPRHCPELAEMSRVSIRILDELVLPFQELQIDDNEYAYLKAIIFFDPDAKGLSDPGKIKRLRSQVQVSLEDYINDRQYDSRGRFGELLLLLPTLQSITWQMIEQIQFIKLFGMAKIDNLLQEMLLGGSPSDAPHAHHPLHPHLMQEHMGTNVIVANTMPTHLSNGQMCEWPRPRGQAATPETPQPSPPGGSGSEPYKLLPGAVATIVKPLSAIPQPTITKQEVI

From PMC3633876
